According to publication PMC4309906:
Results are given in words; binding and its absence hold for the method and conditions named. Binding seen in cells or lysates may run through a third protein. Some entries that bind do so weakly or less than the wild type. Where a sequence is shown, tags or fusion partners need not be part of it.

Biological target: T1, promyelocytic leukemia zinc finger protein (EGFP-PLZF) (UniProt Q05516)
T1 sequence: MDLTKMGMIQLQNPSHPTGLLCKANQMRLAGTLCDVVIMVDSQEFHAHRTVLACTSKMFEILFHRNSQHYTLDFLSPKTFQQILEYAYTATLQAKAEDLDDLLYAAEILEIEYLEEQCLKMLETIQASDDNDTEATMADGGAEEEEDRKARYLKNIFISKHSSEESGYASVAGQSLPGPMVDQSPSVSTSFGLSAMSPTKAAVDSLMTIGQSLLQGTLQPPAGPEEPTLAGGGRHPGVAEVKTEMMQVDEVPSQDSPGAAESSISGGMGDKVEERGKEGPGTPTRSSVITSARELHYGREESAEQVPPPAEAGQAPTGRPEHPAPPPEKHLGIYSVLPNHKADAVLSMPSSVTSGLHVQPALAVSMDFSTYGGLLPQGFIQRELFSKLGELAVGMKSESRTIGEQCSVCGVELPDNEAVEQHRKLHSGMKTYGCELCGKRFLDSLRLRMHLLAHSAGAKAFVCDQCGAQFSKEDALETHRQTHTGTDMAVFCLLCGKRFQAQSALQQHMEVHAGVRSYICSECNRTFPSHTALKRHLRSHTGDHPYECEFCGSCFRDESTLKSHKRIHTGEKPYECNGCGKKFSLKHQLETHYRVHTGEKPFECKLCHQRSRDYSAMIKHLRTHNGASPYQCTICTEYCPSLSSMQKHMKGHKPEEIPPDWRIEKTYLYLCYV
Assay: co-IP; U373MG cells transiently co-transfected with EGFP-PLZF and HA or HA-ZNF179 plasmids; lysis buffer 50 mM NaCl, 0.5 % NP-40, 10 mM Tris-HCl pH 8.0; anti-GFP antibody at 4 °C, protein-A/G agarose; washed three times with modified RIPA buffer; Western blot

binding: binds
B1: Zinc Finger Protein 179 (HA-ZNF179) (protein, UniProt Q9ULX5 1-631)
chain: MPRPALSVTSFCHRLGKRERKQSFMGNSGNSWSHTPFPKLELGLGPQPMAPRELPTCSICLERLRDPISLDCGHDFCIRCFSTHRLPGCEPPCCPECRKICKQKRGLRSLGEKMKLLPQRPLPPALQETCPVRAEPLLLVRINASGGLILRMGAINRCLKHPLARDTPVCLLAVLGEQHSGKSFLLNHLLQGLPGLESGEGGRPRGGEASLQGCRWGANGLARGIWMWSHPFLLGKEGKKVAVFLVDTGDAMSPELSRETRIKLCALTTMLSSYQILSTSQELKDTDLDYLEMFVHVAEVMGKHYGMVPIQHLDLLVRDSSHPNKAGQGHVGNIFQRLSGRYPKVQELLQGKRARCCLLPAPGRRRMNQGHASPGDTDDDFRHLLGAYVSDVLSAAPQHAKSRCQGYWNEGRAVARGDRRLLTGQQLAQEIKNLSGWMGRTGPGFTSPDEMAAQLHDLRKVEAAKREFEEYVRQQDVATKRIFSALRVLPDTMRNLLSTQKDAILARHGVALLCKGRDQTLEALEAELQATAKAFMDSYTMRFCGHLAAVGGAVGAGLMGLAGGVVGAGMAAAALAAEAGMVAAGAAVGATGAAVVGGGVGAGLAATVGCMEKEEDERLLEGDREPLLQEE
